Results are given in words; binding and its absence hold for the method and conditions named. A result given as binding can be weak or reduced; the word gives no strength.

For this test, the target named is Chlorocebus (African green monkey) Nectin-2 (Chlorocebus (African green monkey)). In words: FACS titration (20-0.0003 nM) on Vero cells (endogenous African green monkey Nectin-2).

B1: anti-Nectin-2 monoclonal antibody clone 11 (antibody, V domains shown)
VH: EVQLQQSGTVLTRPGASVKMSCKASGYIFTSYWIHWVKQRPGQGLEWIGAVYPGNSDSNYNQKFKAKAKLTAVTSTSTAYMELSSLTSEDSAVYYCTKLVGTFDYWGQGTTLTVSS
VL: DIVMTQSQKFMSSSIGDRVSVTCKASQNVGINVVWYQQRAGQSPKTLIYSASYRYSGVPDRFTGSGSGTDFTLTISNVQSEDLAEYFCQQYNTNPFTFGSGTKLEIK
For B1, the binding result is “binds”.

The values above are taken from patent US20260116971A1.
